# Measured values: PMC7864067
# Protein sequences, listed by entry. Tags and fused reporters are not part of them. Lines headed by an entry give the natural chain unless they say otherwise; changes in a name come on top. Chains listed by the source or under a name are the forms on record and can include a tag or linker.
# profilin 2b (recombinant) (P35080-2, form named): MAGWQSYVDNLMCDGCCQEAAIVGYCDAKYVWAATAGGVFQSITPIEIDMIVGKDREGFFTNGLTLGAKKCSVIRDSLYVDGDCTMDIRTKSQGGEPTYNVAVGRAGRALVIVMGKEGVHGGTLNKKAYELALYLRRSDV
# Results are given in words; binding and its absence hold for the method and conditions named.
# Target: profilin 2b (recombinant) (UniProt P35080)
# Assay: SEC-MALS + other: SAXS; SEC-MALS on Superdex 75 Increase 10/300 GL in 20 mM HEPES pH 8.5, 100 mM NaCl, 2 mM EDTA, 200–300 μg injected; batch SAXS at 1.1 to 5.7 mg/ml, 10 °C, 20 mM HEPES pH 8.0, 100 mM NaCl, 1 mM DTT; both purified
substance,measurement,value
profilin 2b (recombinant) (from UniProt P35080-2 1-140),binding,no binding
